The source of these data is article doi:10.1101/2020.07.05.188557.

Results are given in words; binding and its absence hold for the method and conditions named. In cells and extracts the contact can be indirect. Some results given as binding are weak or reduced against the parent protein; the word gives no strength. Tags and fused reporters may be left off the sequences shown.

What all share (test): split reporter
Test [1] has as its target T1, Bap2-Cub-GST-6xHA (S. cerevisiae) (UniProt P38084).
T1 sequence: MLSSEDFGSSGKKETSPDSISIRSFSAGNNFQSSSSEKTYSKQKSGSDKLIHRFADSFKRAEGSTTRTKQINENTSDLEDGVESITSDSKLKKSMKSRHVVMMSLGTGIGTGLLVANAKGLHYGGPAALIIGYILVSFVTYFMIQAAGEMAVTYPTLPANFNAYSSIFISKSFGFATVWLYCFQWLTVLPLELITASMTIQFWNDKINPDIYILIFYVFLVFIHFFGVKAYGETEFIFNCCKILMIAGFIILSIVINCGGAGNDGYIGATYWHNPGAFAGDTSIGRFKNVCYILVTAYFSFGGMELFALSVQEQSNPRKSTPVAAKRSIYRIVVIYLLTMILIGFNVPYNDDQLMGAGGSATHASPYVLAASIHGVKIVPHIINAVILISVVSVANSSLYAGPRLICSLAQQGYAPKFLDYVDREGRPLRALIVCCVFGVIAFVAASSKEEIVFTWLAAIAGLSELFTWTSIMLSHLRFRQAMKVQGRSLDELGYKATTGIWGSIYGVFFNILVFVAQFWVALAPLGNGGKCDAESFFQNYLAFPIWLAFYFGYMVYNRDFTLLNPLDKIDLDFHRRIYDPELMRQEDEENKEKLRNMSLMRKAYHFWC

The target in test [2] is T2, Can1-Cub-GST-6xHA (S. cerevisiae) (UniProt P04817).
T2 sequence: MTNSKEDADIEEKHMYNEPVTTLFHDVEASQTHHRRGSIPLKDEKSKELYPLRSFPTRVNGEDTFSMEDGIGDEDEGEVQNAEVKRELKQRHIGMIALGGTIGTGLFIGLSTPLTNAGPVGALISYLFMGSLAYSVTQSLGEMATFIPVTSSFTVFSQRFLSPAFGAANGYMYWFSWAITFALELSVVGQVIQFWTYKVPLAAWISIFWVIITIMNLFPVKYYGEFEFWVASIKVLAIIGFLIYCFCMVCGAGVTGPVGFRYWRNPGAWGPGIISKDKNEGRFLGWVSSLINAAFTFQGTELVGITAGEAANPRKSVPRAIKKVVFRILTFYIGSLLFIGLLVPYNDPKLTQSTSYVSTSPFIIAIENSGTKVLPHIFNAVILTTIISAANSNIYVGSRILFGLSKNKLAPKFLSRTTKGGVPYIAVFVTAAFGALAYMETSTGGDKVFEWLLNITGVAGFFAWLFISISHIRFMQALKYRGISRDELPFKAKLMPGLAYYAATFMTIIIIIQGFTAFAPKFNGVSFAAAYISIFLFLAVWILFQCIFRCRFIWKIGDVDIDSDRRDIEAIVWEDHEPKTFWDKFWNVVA

Test [3] concerns the target T3, Lyp1-Cub-GST-6xHA (S. cerevisiae) (UniProt P32487).
T3 sequence: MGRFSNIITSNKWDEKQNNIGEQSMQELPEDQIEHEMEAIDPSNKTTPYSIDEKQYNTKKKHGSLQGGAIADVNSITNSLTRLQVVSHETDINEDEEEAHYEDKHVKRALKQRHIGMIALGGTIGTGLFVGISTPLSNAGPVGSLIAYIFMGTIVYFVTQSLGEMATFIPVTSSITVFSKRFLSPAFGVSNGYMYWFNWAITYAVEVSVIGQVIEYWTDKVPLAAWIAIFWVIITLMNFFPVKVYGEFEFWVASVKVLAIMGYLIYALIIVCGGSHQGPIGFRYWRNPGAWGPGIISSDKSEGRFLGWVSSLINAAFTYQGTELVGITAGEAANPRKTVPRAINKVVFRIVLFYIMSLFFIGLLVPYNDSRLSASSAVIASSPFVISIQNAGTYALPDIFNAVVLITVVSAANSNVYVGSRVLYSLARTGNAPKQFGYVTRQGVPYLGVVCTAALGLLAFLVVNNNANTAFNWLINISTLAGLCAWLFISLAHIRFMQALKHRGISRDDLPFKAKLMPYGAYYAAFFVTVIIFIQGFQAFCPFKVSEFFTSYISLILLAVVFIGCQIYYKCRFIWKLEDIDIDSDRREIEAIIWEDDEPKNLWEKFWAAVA

B1: Shr3-NubA (protein, UniProt Q02774 1-210)
chain: MFSYSDFCSIGTAMILSATTFLMGVFFSNMPYDYHLLFNPNSTQEHFDLALRHYQILHETPLPVIVTLCVVAGIGLVGGTIKVFKPNPELQMFEYCSLGLYVLAICVFLTNVKTGIDCSVSHNWGEVTENQGLAVIASSNIILLVMFAGVIILQIGLWYSNWDLQKRLKEFYAQEEREAANAGKKTEKVDNAKKNDNKSKGAQKRKNAKK
As to B1, the binding result in test [1] was “binds”; in test [2] it was “binds weakly”; in test [3], “binds weakly”.

B2: Shr3Δ94-NubA (protein, UniProt Q02774)
chain: MFSYSDFCSIGTAMILSATTFLMGVFFSNMPYDYHLLFNPNSTQEHFDLALRHYQILHETPLPVIVTLCVVAGIGLVGGTIKVFKPNPELQMFEYCSLGLYVLAICVFLTNVKTGIDCSVTENQGLAVIASSNIILLVMFAGVIILQIGLWYSNWDLQKRLKEFYAQEEREAANAGKKTEKVDNAKKNDNKSKGAQKRKNAKK
For B2, the binding entry in test [1] was “binds”; in test [2] it was “binds weakly”; in test [3], “binds weakly”.
